Source: PubChem BioAssay AID1259308 (NCATS, 2017)
The whole screen tested about 59,000 reagents; below is an unselected part. About 1,510 of all reagents (2.6%) were called active. 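Calls use total luciferase alone and ignore viability, so some active siRNAs may act by altering cell number.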 Entries without a mark were called inactive. Reagents against one gene are numbered here.

Test: 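Genes whose loss raises luciferase production in HEK293 cells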 (primary screen)
Cell system: human HEK293 embryonic kidney cells stably expressing firefly luciferase (HEK-CMV-Luc2-Hygro)
Reagent: single siRNA against human genes, 0.8 pmol siRNA per well
Duration: 72 h
Detection: 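Luciferase light (ONE-Glo) measured on one replicate plate set and viability (CellTiter-Glo) on the other, scaled to a negative control siRNA, with robust z-scores and luciferase per cell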
Reading the numbers: total luciferase, z-score and total luciferase, % of control: higher = more reporter protein produced; luciferase per cell, z-score: higher = more reporter output per viable cell; viable cells, % of control: higher = more viable cells
Active means: 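An siRNA counts as active if its total luciferase robust z-score exceeds 3; genes with two or more such siRNAs out of three were retested with fresh siRNAs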
Meaning of the calls: active = raised luciferase; inactive = no rise

gene knocked down | reagent | total luciferase, z-score | total luciferase, % of control | luciferase per cell, z-score | viable cells, % of control
NLRP1 (GeneID 22861) | 1 | 0.793 | 97.7 | 0.914 | 85.8
NLRP1 (GeneID 22861) | 2 | 0.0241 | 82.4 | 0.383 | 83.2
NLRP1 (GeneID 22861) | 3 | -0.489 | 72.2 | -0.773 | 98.9
CMKLR1 (GeneID 1240) | 1 | 0.991 | 102 | 3.23 | 48.5
CMKLR1 (GeneID 1240) | 2 | 0.558 | 93 | 0.793 | 84.3
CMKLR1 (GeneID 1240) | 3 | 0.472 | 91.3 | 1.16 | 75.2
DVL1 (GeneID 1855) | 1 | 0.0521 | 82.9 | -0.531 | 107
DVL1 (GeneID 1855) | 2 | 0.649 | 94.8 | -0.103 | 109
DVL1 (GeneID 1855) | 3 | 0.326 | 88.4 | -0.111 | 102
TDO2 (GeneID 6999) | 1 | 0.576 | 93.3 | 0.696 | 86.8
TDO2 (GeneID 6999) | 2 | 1.16 | 105 | 1.16 | 86.5
TDO2 (GeneID 6999) | 3 | -0.029 | 81.3 | -0.44 | 102
PCDH7 (GeneID 5099) | 1 | 1.62 | 114 | 1.83 | 78.7
PCDH7 (GeneID 5099) | 2 | 0.731 | 96.4 | 0.385 | 97.4
PCDH7 (GeneID 5099) | 3 | -0.133 | 79.2 | 0.427 | 79.1
ENOX1 (GeneID 55068) | 1 | 0.371 | 89.3 | 0.333 | 91.4
ENOX1 (GeneID 55068) | 2 | -1.35 | 55.1 | -1.58 | 93.3
ENOX1 (GeneID 55068) | 3 | -0.299 | 75.9 | -0.0921 | 86.9
VNN3P (GeneID 55350) | 1 | -0.772 | 66.5 | -0.621 | 87.6
VNN3P (GeneID 55350) | 2 | -0.2 | 77.9 | -0.254 | 93.1
VNN3P (GeneID 55350) | 3 | -0.123 | 79.4 | -0.391 | 98.4
SYPL1 (GeneID 6856) | 1 | 0.00458 | 82 | -0.117 | 94.5
SYPL1 (GeneID 6856) | 2 | -0.479 | 72.4 | -1.04 | 106
SYPL1 (GeneID 6856) | 3 | -0.105 | 79.8 | -0.677 | 107
MYO18B (GeneID 84700) | 1 | -1.9 | 44.1 | -1.82 | 79.5
MYO18B (GeneID 84700) | 2 | -0.539 | 71.2 | -0.603 | 93.2
MYO18B (GeneID 84700) | 3 | -1.12 | 59.6 | -1.46 | 97.7
SMYD4 (GeneID 114826) | 1 | 2.93 | 140 | 1.81 | 97.3
SMYD4 (GeneID 114826) | 2 | 0.0441 | 82.8 | -0.33 | 101
SMYD4 (GeneID 114826) | 3 | -0.619 | 69.6 | -0.943 | 99.7
SSRP1 (GeneID 6749) | 1 | -2.31 | 36 | -2.38 | 75.3
SSRP1 (GeneID 6749) | 2 | -1.25 | 57.1 | -0.789 | 78.6
SSRP1 (GeneID 6749) | 3 | -1.29 | 56.2 | -0.893 | 79.5
TM4SF20 (GeneID 79853) | 1 | -1.1 | 60 | -1.43 | 97.7
TM4SF20 (GeneID 79853) | 2 | 1.07 | 103 | 0.343 | 105
TM4SF20 (GeneID 79853) | 3 | -2.03 | 41.6 | -0.189 | 48.9
PMS2P10 (GeneID 100288713) | 1 | 0.499 | 91.8 | 1.1 | 76.8
PMS2P10 (GeneID 100288713) | 2 | -1.61 | 49.9 | -1.02 | 72.9
PMS2P10 (GeneID 100288713) | 3 | -1.37 | 54.6 | -1.8 | 98.2
